Measured values published in patent publication US5972883A, “Method for the treatment of neurodegenerative diseases by administering VIP, an analogue, fragment or a conjugate thereof” (Yeda Research and Development Co. Ltd., priority 1993, dated 1999).
Not every detail of the peptide structures is certain; ends, links or a residue may be inferred. Residues, ends and D or L forms follow the SMILES beside them. *: point of attachment. Stearoyl = CCCCCCCCCCCCCCCCCC(=O)*

Experiments:
[1] = tested on: Neurons from rat cerebral cortex treated with β-amyloid peptide fragment 25-35; assay: Survival of neurons treated with fragment 25-35 of β-amyloid peptide; conditions: 25 μM β-amyloid fragment 25-35, 5 days
[2] = tested on: neurons treated with a VIP antagonist; assay: Survival of neurons treated with a VIP antagonist; type: cell-based, rat; conditions: for effect on survival of neurons treated with VIP antagonist: 10^-8 M VIP antagonist; for concentration of maximal (peak) activity on neuronal survival: in the presence of 10^-8 M VIP antagonist
[3] = tested on: untreated neurons (cerebral cortical cultures); assay: Survival of untreated neurons (naturally occurring death), cerebral cortical cultures; type: cell-based, rat
Procedure: (a) Cerebral cortical cultures were prepared by a slight modification of the techniques described by Forsythe and Westbrook, (a. Physiol. Lond. 396:515 (1988)), in which cerebral cortex was used instead of hippocampus and newborn rats were utilized instead of E16 mice. After nine days growth in vitro, the cultures were given a complete change of medium and treated with serial dilutions of either peptide 1, 2 or 6 in order to determine whether these peptides were effective in protecting neurons from naturally occurring death. Cerebral cortical cells were counted as above, however, only 40 fields per plate were counted comprising an area of 20 mm^2.
(a) Cells were prepared as described in Example 6. After nine days growth in vitro, the cultures were given a complete change of medium and treated with serial dilutions of peptide 5 or of peptide 3 in the presence and in the absence of 10^-8 M of a VIP antagonist described in detail in U.S. Pat. No. 5,217,953. One treatment was given at the beginning of a five day test period. Cell counts were performed on 100 fields, with a total area of 50 mm^2. Neurons were counted without knowledge of treatment.

| Structure (SMILES) | effect on survival of neurons treated with VIP antagonist [2] | concentration of maximal (peak) activity on neuronal survival [2] | other results |
| --- | --- | --- | --- |
| CCCCCCCCCCCCCCCCCC(=O)N[C@@H](C)C(=O)N[C@H](C(=O)N[C@@H](CCCCN)C(=O)N[C@@H](CCCCN)C(=O)N[C@@H](Cc1ccc(O)cc1)C(=O)N[C@@H](CC(C)C)C(=O)N[C@@H](CC(N)=O)C(=O)N[C@@H](CO)C(=O)N[C@H](C(=O)N[C@@H](CC(C)C)C(=O)N[C@@H](CC(N)=O)C(N)=O)[C@@H](C)CC)C(C)C [peptide 6, St-Ala-Val-Lys-Lys-Tyr-Leu-Asn-Ser-Ile-Leu-Asn-amide] (Stearoyl-AVKKYLNSILN-NH2) | – | – | protection of neurons from β-amyloid peptide fragment toxicity [1]: Protecting activity was evident even at higher concentrations |
| CCCCCCCCCCCCCCCCCC(=O)N[C@@H](Cc1c[nH]cn1)C(=O)N[C@@H](CO)C(=O)N[C@@H](CC(=O)O)C(=O)N[C@@H](C)C(=O)N[C@H](C(=O)N[C@@H](Cc1ccccc1)C(=O)N[C@H](C(=O)N[C@@H](CC(=O)O)C(=O)N[C@@H](CC(N)=O)C(=O)N[C@@H](Cc1ccc(O)cc1)C(=O)N[C@H](C(=O)N[C@@H](CCCNC(=N)N)C(=O)N[C@@H](CC(C)C)C(=O)N[C@@H](CCCNC(=N)N)C(N)=O)[C@@H](C)O)[C@@H](C)O)C(C)C [peptide 3, St-His-Ser-Asp-Ala-Val-Phe-Thr-Asp-Asn-Tyr-Thr-Arg-Leu-Arg-amide] | able to protect neurons from death caused by the VIP antagonist | 10^-10 M | concentrations at which cell counts were higher than those of control untreated cells ([2]; in the presence of VIP antagonist): 10^-10 -10^-3 M |
| CCCCCCCCCCCCCCCCCC(=O)N[C@@H](CCCCN)C(=O)N[C@@H](CCC(N)=O)C(=O)N[C@@H](CCSC)C(=O)N[C@@H](C)C(=O)N[C@H](C(=O)N[C@@H](CCCCN)C(=O)N[C@@H](CCCCN)C(=O)N[C@@H](Cc1ccc(O)cc1)C(=O)N[C@@H](CC(C)C)C(=O)N[C@@H](C)C(=O)N[C@@H](C)C(=O)N[C@H](C(=O)N[C@@H](CC(C)C)C(N)=O)C(C)C)C(C)C [peptide 2, St-Lys-Gln-Met-Ala-Val-Lys-Lys-Tyr-Leu-Ala-Ala-Val-Leu-amide] | – | – | concentration at which protection declines ([3]; untreated rat cerebral cortical cultures): 10^-6 M |
| CCCCCCCCCCCCCCCCCC(=O)N[C@@H](C)C(=O)N[C@H](C(=O)N[C@H](C(=O)N[C@H](C(=O)N[C@@H](CC(=O)O)C(=O)N[C@@H](CC(N)=O)C(=O)N[C@@H](Cc1ccc(O)cc1)C(=O)N[C@H](C(N)=O)[C@@H](C)O)[C@@H](C)O)[C@@H](C)O)C(C)C [peptide 5, St-Ala-Val-Thr-Thr-Asp-Asn-Tyr-Thr-amide] (Stearoyl-AVTTDNYT-NH2) | stimulating neuronal survival | 10^-10 M | concentration of maximal activity on neuronal survival ([3]; in absence of the VIP antagonist): 10^-8 M |
